Measurements reported in PubChem BioAssay AID1259254 (NCATS, 2017).

Screen: 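Genome-wide screen for genes that prevent DNA re-replication in cancer cells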 (primary screen)
Cell system: human HCT116 colorectal cancer cells
Reagents: single siRNA against human genes
Time to read-out: 3 days
Measured: 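Imaged Hoechst DNA stain sorts each cell into a cycle phase by DNA amount; per plate, G2 fraction set to 0% for non-targeting and 100% for GMNN siRNA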
Reading the numbers: G2 robust z-score and G2 cells, % of GMNN control: higher = more G2 cells, more excess DNA replication; raw share of cells in G2: higher = larger share of cells with G2 DNA content
Active means: 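An siRNA counts as active if its G2 robust z-score lies at least 5 MADs above the screen median; here such calls match roughly 38% of GMNN control or more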
This is a random part of about 59,000 reagents tested. About 1,550 of all reagents (2.6%) count as active. 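G2 share is only a proxy for re-replication; each gene was hit by three separate siRNAs, and active genes were retested.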 The raw values are shown without normalisation. Entries without a mark were called inactive. The numbers tell different reagents against one gene apart. Not given: the amount of reagent.

| Target gene | reagent | G2 robust z-score | G2 cells, % of GMNN control | raw share of cells in G2 (%) |
| --- | --- | --- | --- | --- |
| EIF2S2P7 | 1 | 2.3 | 19.2 | 9.13 |
| EIF2S2P7 | 2 | -0.622 | -1.41 | 3.25 |
| EIF2S2P7 | 3 | -0.639 | -1.53 | 2.66 |
| TIE1 | 1 | -1.4 | -6.91 | 3.33 |
| TIE1 | 2 | -1.06 | -4.48 | 2.45 |
| TIE1 | 3 | -1.12 | -4.9 | 3.76 |
| SPMAP2 | 1 | -0.835 | -2.91 | 2.56 |
| SPMAP2 | 2 | 0.171 | 4.17 | 6.03 |
| SPMAP2 | 3 | 4.34 | 33.5 | 14.3 |
| CCNJL | 1 | 2.63 | 21.5 | 10.7 |
| CCNJL | 2 | -0.247 | 1.23 | 3.5 |
| CCNJL | 3 | 0.939 | 9.57 | 7.9 |
| ELP3 | 1 | -0.651 | -1.61 | 3.66 |
| ELP3 | 2 | -1.25 | -5.84 | 3.87 |
| ELP3 | 3 | -0.608 | -1.31 | 3.97 |
| NFKB1 | 1 | 0.0586 | 3.38 | 4.8 |
| NFKB1 | 2 | 0.0946 | 3.63 | 6.55 |
| NFKB1 | 3 | 2.23 | 18.7 | 9.88 |
| SLC7A5 | 1 | 1.24 | 11.7 | 10.5 |
| SLC7A5 | 2 | 2.27 | 19 | 10.7 |
| SLC7A5 | 3 | 0.708 | 7.95 | 7.22 |
| PITPNM1 | 1 | -0.826 | -2.85 | 3.59 |
| PITPNM1 | 2 | -0.633 | -1.49 | 2.69 |
| PITPNM1 | 3 | -0.721 | -2.1 | 4.41 |
| HAPLN3 | 1 | 0.962 | 9.74 | 7.09 |
| HAPLN3 | 2 | 0.843 | 8.9 | 5.66 |
| HAPLN3 | 3 | -1.05 | -4.43 | 1.52 |
| RGN | 1 | -0.153 | 1.89 | 4.16 |
| RGN | 2 | 1.58 | 14.1 | 12.3 |
| RGN | 3 | 3.63 | 28.5 | 15.3 |
| ABLIM3 | 1 | -0.569 | -1.04 | 3.81 |
| ABLIM3 | 2 | 0.796 | 8.57 | 6.8 |
| ABLIM3 | 3 | -1.21 | -5.58 | 4.13 |
| GRIK1 | 1 | 0.281 | 4.94 | 7.09 |
| GRIK1 | 2 | -0.634 | -1.49 | 4.28 |
| GRIK1 | 3 | 0.417 | 5.9 | 6.68 |
| C2CD2 | 1 | -0.739 | -2.23 | 3.57 |
| C2CD2 | 2 | 1.36 | 12.5 | 9.36 |
| C2CD2 | 3 | -0.0835 | 2.38 | 4.13 |
| NUDCD3 | 1 | -0.736 | -2.21 | 3.58 |
| NUDCD3 | 2 | 0.0561 | 3.36 | 5.4 |
| NUDCD3 | 3 | -0.494 | -0.508 | 3.12 |
| PCDHGC4 | 1 | -0.756 | -2.35 | 3.35 |
| PCDHGC4 | 2 | -0.19 | 1.63 | 5.02 |
| PCDHGC4 | 3 | -0.343 | 0.551 | 6.67 |
| KRT80 | 1 | -0.767 | -2.43 | 2.22 |
| KRT80 | 2 | -0.981 | -3.93 | 2.51 |
| KRT80 | 3 | -0.975 | -3.89 | 1.71 |

8 neighbouring entries from above, for reference:
| Target gene | reagent | G2 robust z-score | G2 cells, % of GMNN control | raw share of cells in G2 (%) |
| --- | --- | --- | --- | --- |
| SLC7A5 | 2 | 2.27 | 19 | 10.7 |
| SLC7A5 | 3 | 0.708 | 7.95 | 7.22 |
| PITPNM1 | 1 | -0.826 | -2.85 | 3.59 |
| PITPNM1 | 2 | -0.633 | -1.49 | 2.69 |
| PITPNM1 | 3 | -0.721 | -2.1 | 4.41 |
| HAPLN3 | 1 | 0.962 | 9.74 | 7.09 |
| HAPLN3 | 2 | 0.843 | 8.9 | 5.66 |
| HAPLN3 | 3 | -1.05 | -4.43 | 1.52 |
